Non-standard residues stand in square brackets, D forms with d. pGlu = O=C1CC[C@@H](C(=O)O)N1
What was measured:
whole blood = assay: 96-well plate whole blood multiplex cytokine release, IP-10 (MAGPIX bead assay, Example 2); type: cell-based, human; details: Day-6, n = 10
PBMC = assay: Overnight IFNγ ELISpot assay with fresh PBMC (Example 2); type: cell-based, human; details: Day-6, n = 5
Protocol: Ten HLA-DQ2.5+ adults with celiac disease diagnosed according to the National Institutes of Health Consensus Statement 2004 were enrolled (Table 7).^22 Subjects were required to have followed gluten-free diet for at least one year and without known gluten exposures within the previous two-months. […] Full inclusion and exclusion criteria are described in Table 8. Each of 3 consecutive days subjects consumed 3 cookies that were prepared from approximately 4.5 g wheat gluten, 3 g barley flour protein, and 1.5 g rye flour protein. Blood was collected before and six days after commencing the oral challenge. Blood was collected using a 21G butterfly needle directly into 10 mL lithium heparin tubes (BD Vacutainer® Heparin tube #367880) and QuantiFERON® NIL (0591-0205, Cellestis Ltd., Chadstone VIC 3148 Australia) and QuantiFERON® MITOGEN (0593-0201, Cellestis Ltd.).
Overnight IFNγ ELISpot assays (Human IFN-γ ELISpotPRO kit, transparent, ALP; Mabtech AB, #3420-2APT-10) were performed using PBMC freshly separated from heparinized blood diluted 1:1 in PBS with 2% fetal bovine serum (Stemcell Technologies #07905; Vancouver, BC, V5Z 1B3, Canada) overlaid on density gradient medium (Ficoll-Paque™ PLUS; GE Healthcare Lice Sciences #:17-1440-02) in SepMate™-50 tubes (Stemcell Technologies #15460). PBMC (8 million/mL) were resuspended in serum-free medium with gentamicin and phenol red (X-VIVO™15; Lonza, Walkersville Mass. 21793). PBMC (0.4 million/50 μL/well) and incubated with 50 μL 80% X-vivol5, 0.2% DMSO and 20% PBS in three triplicate wells (“medium only”), or with 50 μL PHA-L 20 μg/ml or peptide at 2× final concentration in 80% X-vivol5, 0.2% DMSO and 20% PBS. Peptide solutions to be added to individual ELISpot wells were prepared in 96-well U-bottom plates (60 μL/well) that were then sealed with adhesive ELISA plate cover slips before replacing the plastic lid and being frozen at −80° C. 96-well plates containing peptide solutions were thawed at room temperature for 10 min while being centrifuged at 300 g immediately prior to being added to ELISpot wells. Peptide pools and mitogen were assessed in triplicate wells, and individual peptides were assessed in duplicate wells. X-VIVO™15 (50 μL) was incubated with 80% X-vivol5, 0.2% DMSO and 20% PBS (50 μL) in triplicate wells (“no PBMC” control). A Zeiss automated ELISpot counter was used to determine spot forming units (SFU) per well (Zellnet Inc., Fort Lee, N.J. 07024). Laboratory staff were unaware of the arrangement of peptide solutions in ELISpot wells during assay setup and plate counting.

[1] = individual peptides 5 μM, rank among 17
[2] = Peptide 2 re-synthesised by Pepscan, 10 μg/mL (5.45 μM)

Substance	IP-10 WB MAGPIX % max (rank) (whole blood; [1])	IFNγ ELISpot % max (rank) (PBMC; [1])	IP-10 WB MAGPIX % max (rank) (whole blood; [2])	IFNγ ELISpot % max (rank) (PBMC; [2])
[pGlu]PEQPIPEQPQPYPQQ-NH2 [Peptide 3]	2	2	–	–
[pGlu]LQPFPQPELPYPQPQ-NH2 [Peptide 1]	3	10	–	–
[pGlu]QPFPQPEQPFPWQP-NH2 [Peptide 2, CSBio and Pepscan batches tested separately]	5	9	4	4
